Reference: publication doi:10.1101/2023.12.02.569451
Where two headings read alike, the source gives them in different places. No constants are given. Whether binding was seen depends on the method and setting. Binding seen in cells or lysates may run through a third protein. These calls come from enrichment with a bait or labelling near it, and not all partners need be listed. One block for each molecule: values may come before it.

Protein sequences, listed by entry. Tags and fused reporters are not part of them.
UniProt Q99496: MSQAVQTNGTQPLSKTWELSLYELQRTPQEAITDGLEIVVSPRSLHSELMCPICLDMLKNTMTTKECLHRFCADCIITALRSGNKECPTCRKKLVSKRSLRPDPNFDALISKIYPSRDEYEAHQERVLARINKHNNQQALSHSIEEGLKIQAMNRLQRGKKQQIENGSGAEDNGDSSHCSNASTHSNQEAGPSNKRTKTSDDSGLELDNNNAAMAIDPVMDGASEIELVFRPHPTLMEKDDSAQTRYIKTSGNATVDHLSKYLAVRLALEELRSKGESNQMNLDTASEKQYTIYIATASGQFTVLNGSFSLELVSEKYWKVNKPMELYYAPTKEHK
UniProt P35226: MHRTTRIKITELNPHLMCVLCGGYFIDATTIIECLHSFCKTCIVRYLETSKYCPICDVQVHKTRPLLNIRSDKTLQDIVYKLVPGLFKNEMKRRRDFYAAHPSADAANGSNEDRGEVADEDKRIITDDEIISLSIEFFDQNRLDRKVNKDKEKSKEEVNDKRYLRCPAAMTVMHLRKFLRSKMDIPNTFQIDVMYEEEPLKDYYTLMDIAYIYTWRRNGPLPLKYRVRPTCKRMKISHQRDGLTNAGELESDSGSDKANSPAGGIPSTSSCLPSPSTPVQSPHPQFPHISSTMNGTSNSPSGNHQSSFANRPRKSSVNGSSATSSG
UniProt Q15910: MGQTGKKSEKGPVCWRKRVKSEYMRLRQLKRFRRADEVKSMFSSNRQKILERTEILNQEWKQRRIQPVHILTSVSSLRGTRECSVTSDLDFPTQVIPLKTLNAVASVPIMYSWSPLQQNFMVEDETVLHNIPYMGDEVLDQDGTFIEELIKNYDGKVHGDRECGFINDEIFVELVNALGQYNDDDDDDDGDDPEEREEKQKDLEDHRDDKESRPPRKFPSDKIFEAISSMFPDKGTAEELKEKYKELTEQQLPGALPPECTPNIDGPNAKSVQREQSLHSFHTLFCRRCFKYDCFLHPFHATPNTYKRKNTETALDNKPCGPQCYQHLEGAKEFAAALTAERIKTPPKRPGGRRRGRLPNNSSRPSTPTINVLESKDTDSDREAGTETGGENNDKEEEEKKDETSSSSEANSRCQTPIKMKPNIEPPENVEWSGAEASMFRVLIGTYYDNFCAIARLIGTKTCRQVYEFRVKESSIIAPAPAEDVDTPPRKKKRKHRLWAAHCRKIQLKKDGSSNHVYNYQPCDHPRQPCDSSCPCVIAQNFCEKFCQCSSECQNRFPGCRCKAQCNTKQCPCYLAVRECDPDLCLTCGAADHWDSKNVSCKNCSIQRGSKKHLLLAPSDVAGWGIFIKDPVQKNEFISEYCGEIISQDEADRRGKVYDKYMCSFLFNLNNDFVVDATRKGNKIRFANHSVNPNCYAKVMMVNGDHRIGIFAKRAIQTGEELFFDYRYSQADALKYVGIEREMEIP
UniProt Q15022: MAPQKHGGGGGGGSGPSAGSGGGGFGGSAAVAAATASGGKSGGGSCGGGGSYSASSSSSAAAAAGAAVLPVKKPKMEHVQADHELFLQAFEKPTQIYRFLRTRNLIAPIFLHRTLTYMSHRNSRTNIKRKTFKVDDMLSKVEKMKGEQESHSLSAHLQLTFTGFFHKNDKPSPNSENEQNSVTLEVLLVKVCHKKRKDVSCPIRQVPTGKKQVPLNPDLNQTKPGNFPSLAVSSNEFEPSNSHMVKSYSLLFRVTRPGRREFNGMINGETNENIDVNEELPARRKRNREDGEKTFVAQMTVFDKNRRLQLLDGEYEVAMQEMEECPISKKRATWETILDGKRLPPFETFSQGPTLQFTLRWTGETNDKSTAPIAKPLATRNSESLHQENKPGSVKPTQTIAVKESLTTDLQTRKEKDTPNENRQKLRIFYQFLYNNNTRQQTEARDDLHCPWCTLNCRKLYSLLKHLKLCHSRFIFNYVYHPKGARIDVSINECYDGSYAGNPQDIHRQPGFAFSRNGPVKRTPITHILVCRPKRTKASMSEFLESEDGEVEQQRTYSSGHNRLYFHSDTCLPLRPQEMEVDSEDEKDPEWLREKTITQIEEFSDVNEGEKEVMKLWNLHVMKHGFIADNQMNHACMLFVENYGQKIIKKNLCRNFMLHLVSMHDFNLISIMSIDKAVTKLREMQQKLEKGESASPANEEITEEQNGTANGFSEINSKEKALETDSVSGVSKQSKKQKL
UniProt Q86SE9: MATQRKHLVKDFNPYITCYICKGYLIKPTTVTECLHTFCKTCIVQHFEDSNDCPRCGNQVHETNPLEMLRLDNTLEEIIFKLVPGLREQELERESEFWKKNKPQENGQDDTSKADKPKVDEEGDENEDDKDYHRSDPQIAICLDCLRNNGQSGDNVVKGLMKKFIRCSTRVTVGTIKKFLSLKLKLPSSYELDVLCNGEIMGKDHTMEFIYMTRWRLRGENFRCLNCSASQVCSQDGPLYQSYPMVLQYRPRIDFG
UniProt Q14781: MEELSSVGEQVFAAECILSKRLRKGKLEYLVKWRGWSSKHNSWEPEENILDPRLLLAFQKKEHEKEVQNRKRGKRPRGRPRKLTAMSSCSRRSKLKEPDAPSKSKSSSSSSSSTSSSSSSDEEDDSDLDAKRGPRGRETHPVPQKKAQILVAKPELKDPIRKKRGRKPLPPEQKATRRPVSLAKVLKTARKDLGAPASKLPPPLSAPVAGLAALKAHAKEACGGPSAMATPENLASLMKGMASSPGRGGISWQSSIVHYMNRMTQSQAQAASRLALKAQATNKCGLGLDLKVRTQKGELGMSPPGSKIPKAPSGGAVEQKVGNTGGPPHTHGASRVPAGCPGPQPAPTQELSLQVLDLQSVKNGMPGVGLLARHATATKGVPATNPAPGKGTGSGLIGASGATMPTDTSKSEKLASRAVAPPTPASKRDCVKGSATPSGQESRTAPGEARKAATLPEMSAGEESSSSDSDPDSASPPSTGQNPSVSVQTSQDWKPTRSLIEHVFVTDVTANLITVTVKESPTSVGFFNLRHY
UniProt O43189: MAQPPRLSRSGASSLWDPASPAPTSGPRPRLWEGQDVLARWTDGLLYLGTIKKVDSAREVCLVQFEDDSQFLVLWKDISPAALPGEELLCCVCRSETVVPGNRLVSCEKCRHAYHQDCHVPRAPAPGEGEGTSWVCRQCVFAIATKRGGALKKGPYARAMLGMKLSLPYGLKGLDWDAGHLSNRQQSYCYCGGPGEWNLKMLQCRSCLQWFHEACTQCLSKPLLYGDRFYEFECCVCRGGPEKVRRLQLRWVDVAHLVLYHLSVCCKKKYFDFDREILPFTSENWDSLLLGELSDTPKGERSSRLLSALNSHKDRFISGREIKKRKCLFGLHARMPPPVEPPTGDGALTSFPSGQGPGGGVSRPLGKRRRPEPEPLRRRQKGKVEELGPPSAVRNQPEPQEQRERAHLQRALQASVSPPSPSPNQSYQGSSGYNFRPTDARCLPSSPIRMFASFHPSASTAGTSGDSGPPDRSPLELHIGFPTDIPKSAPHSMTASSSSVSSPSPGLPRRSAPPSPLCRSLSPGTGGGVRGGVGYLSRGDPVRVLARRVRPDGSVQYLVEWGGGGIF
UniProt Q06587: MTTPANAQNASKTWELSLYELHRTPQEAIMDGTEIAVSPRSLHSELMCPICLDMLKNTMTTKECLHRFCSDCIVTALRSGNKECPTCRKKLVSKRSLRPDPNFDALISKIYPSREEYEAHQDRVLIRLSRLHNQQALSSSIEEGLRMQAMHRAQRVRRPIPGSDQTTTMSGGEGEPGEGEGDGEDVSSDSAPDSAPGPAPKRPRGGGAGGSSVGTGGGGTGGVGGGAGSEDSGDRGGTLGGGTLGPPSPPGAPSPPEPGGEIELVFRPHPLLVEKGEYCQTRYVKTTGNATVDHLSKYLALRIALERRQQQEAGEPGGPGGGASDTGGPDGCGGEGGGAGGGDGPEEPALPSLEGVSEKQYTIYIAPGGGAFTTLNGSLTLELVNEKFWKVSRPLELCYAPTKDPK
UniProt Q9Y483: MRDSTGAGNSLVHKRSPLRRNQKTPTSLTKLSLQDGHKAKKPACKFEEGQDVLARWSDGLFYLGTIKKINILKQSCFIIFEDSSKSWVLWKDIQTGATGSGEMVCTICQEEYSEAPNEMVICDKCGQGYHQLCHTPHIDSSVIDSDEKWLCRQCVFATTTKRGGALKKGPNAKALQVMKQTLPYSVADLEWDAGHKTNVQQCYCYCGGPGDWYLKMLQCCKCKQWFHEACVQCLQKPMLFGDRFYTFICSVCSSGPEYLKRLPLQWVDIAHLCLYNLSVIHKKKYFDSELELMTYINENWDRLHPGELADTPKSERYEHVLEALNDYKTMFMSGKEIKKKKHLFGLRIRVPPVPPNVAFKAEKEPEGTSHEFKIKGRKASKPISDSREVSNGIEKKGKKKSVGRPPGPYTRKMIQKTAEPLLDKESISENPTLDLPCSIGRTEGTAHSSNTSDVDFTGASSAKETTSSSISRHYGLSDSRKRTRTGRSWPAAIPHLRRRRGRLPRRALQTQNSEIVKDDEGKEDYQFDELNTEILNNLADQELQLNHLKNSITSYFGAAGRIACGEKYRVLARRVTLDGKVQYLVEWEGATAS
UniProt A6NHQ4: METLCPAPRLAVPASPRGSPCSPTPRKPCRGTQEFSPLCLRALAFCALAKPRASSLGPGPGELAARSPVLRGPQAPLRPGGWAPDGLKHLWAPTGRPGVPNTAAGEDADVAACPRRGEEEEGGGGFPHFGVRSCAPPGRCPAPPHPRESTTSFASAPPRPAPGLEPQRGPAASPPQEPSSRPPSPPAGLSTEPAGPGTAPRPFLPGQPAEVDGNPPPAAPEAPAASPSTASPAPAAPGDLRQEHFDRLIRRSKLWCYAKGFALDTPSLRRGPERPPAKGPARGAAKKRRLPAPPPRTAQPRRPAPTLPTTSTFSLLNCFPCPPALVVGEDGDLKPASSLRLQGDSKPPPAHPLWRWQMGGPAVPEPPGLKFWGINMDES

What was measured:
Assay in all cases: affinity purification with mass spectrometry
[1] = target: RING1B (human (endogenous in HSJD-DIPG-007 and DIPGXIII)) (UniProt Q99496)
[2] = target: PCGF4 (human (endogenous in HSJD-DIPG-007 and DIPGXIII)) (UniProt P35226)
[3] = target: EZH2 (human (endogenous in HSJD-DIPG-007)) (UniProt Q15910)
[4] = target: SUZ12 (human (endogenous in HSJD-DIPG-007)) (UniProt Q15022)
[5] = target: EZH2 (human (endogenous in HSJD-DIPG-007)), Q15910; conditions: remark: other sources report otherwise
[6] = target: PCGF4 (human (endogenous in HSJD-DIPG-007 and DIPGXIII)) (UniProt P35226); remark: listed apart in the source
[7] = target: RING1B (human (endogenous in HSJD-DIPG-007 and DIPGXIII)) (UniProt Q99496); remark: listed apart in the source

Molecule: PCGF5 (from UniProt Q86SE9 1-256)
binding [1]: binds

Molecule: CBX2 (from UniProt Q14781 1-532)
binding [2]: binds

Molecule: PHF1 (from UniProt O43189 1-567)
binding [3]: binds
binding [4]: binds

B1: EZH1, Q92800 1-747 (protein)
chain: MEIPNPPTSKCITYWKRKVKSEYMRLRQLKRLQANMGAKALYVANFAKVQEKTQILNEEWKKLRVQPVQSMKPVSGHPFLKKCTIESIFPGFASQHMLMRSLNTVALVPIMYSWSPLQQNFMVEDETVLCNIPYMGDEVKEEDETFIEELINNYDGKVHGEEEMIPGSVLISDAVFLELVDALNQYSDEEEEGHNDTSDGKQDDSKEDLPVTRKRKRHAIEGNKKSSKKQFPNDMIFSAIASMFPENGVPDDMKERYRELTEMSDPNALPPQCTPNIDGPNAKSVQREQSLHSFHTLFCRRCFKYDCFLHPFHATPNVYKRKNKEIKIEPEPCGTDCFLLLEGAKEYAMLHNPRSKCSGRRRRRHHIVSASCSNASASAVAETKEGDSDRDTGNDWASSSSEANSRCQTPTKQKASPAPPQLCVVEAPSEPVEWTGAEESLFRVFHGTYFNNFCSIARLLGTKTCKQVFQFAVKESLILKLPTDELMNPSQKKKRKHRLWAAHCRKIQLKKDNSSTQVYNYQPCDHPDRPCDSTCPCIMTQNFCEKFCQCNPDCQNRFPGCRCKTQCNTKQCPCYLAVRECDPDLCLTCGASEHWDCKVVSCKNCSIQRGLKKHLLLAPSDVAGWGTFIKESVQKNEFISEYCGELISQDEADRRGKVYDKYMSSFLFNLNNDFVVDATRKGNKIRFANHSVNPNCYAKVVMVNGDHRIGIFAKRAIQAGEELFFDYRYSQADALKYVGIERETDVL
binding [5]: binds

B2: CBX6 (protein, UniProt O95503 1-412)
chain: MELSAVGERVFAAESIIKRRIRKGRIEYLVKWKGWAIKYSTWEPEENILDSRLIAAFEQKERERELYGPKKRGPKPKTFLLKARAQAEALRISDVHFSVKPSASASSPKLHSSAAVHRLKKDIRRCHRMSRRPLPRPDPQGGSPGLRPPISPFSETVRIINRKVKPREPKRNRIILNLKVIDKGAGGGGAGQGAGALARPKVPSRNRVIGKSKKFSESVLRTQIRHMKFGAFALYKPPPAPLVAPSPGKAEASAPGPGLLLAAPAAPYDARSSGSSGCPSPTPQSSDPDDTPPKLLPETVSPSAPSWREPEVLDLSLPPESAATSKRAPPEVTAAAGPAPPTAPEPAGASSEPEAGDWRPEMSPCSNVVVTDVTSNLLTVTIKEFCNPEDFEKVAAGVAGAAGGGGSIGASK
binding [6]: binds
binding [7]: binds

B3: CBX4 (protein, UniProt O00257 1-560)
chain: MELPAVGEHVFAVESIEKKRIRKGRVEYLVKWRGWSPKYNTWEPEENILDPRLLIAFQNRERQEQLMGYRKRGPKPKPLVVQVPTFARRSNVLTGLQDSSTDNRAKLDLGAQGKGQGHQYELNSKKHHQYQPHSKERAGKPPPPGKSGKYYYQLNSKKHHPYQPDPKMYDLQYQGGHKEAPSPTCPDLGAKSHPPDKWAQGAGAKGYLGAVKPLAGAAGAPGKGSEKGPPNGMMPAPKEAVTGNGIGGKMKIVKNKNKNGRIVIVMSKYMENGMQAVKIKSGEVAEGEARSPSHKKRAADERHPPADRTFKKAAGAEEKKVEAPPKRREEEVSGVSDPQPQDAGSRKLSPTKEAFGEQPLQLTTKPDLLAWDPARNTHPPSHHPHPHPHHHHHHHHHHHHAVGLNLSHVRKRCLSETHGEREPCKKRLTARSISTPTCLGGSPAAERPADLPPAAALPQPEVILLDSDLDEPIDLRCVKTRSEAGEPPSSLQVKPETPASAAVAVAAAAAPTTTAEKPPAEAQDEPAESLSEFKPFFGNIIITDVTANCLTVTFKEYVTV
binding [6]: binds
binding [7]: binds

The next lines start with the values.

binding [2]: binds
Molecule: RING1A (from UniProt Q06587 1-406)

binding [3]: binds
binding [4]: binds
Molecule: MTF2 (from UniProt Q9Y483 1-593)

binding [3]: binds
Molecule: EPOP (from UniProt A6NHQ4 1-379)
